{"source": "PubChem BioAssay AID493014", "about": "(National Center for Advancing Translational Sciences (NCATS), 2011)", "note": "In all, about 340,000 compounds went through this assay and about 170 (0.05%) were called active. Inconclusive means that the source gave no clear call. Such entries were picked first, then a sample of the others. The call rests on the fitted dose curve; in most records, active means well fitted inhibition curve with a large enough effect in the signal ratio, with a control signal flat (not every such curve was filed as active); inconclusive means small, poorly fitted or top-dose-only effect, or effect the other way, or a change in a side signal; inactive means flat fitted curve, though single readings scatter; the % refers to the signal ratio. A potency beside an inconclusive call is a rough fit, not a confirmed value. Potency means the concentration at half of the fitted maximal effect.", "data": [{"assay": "qHTS Assay to Find Inhibitors of Chronic Active B-Cell Receptor Signaling;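 on activity change, negative = inhibition: plate controls were basal doxycycline-induced cells for no effect and cells given 10 µM MG132 for full effect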", "settings": "ABC-DLBCL IkBa-CBG/CBR reporter, luminescence ratio (green luciferase fused to IkBa over red control in TMD8 lymphoma cells), 4 h; activity change, negative = inhibition: at 46.1 µM (top of the series)", "method_in_brief": "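Concentration-response series (up to 46 uM) were applied to TMD8 dual-reporter cells for 4 h at 37C with doxycycline. Green/red ratio, after filter-overlap correction, defined %Activity; red signal alone was normalised to basal cells and zero luminescence.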", "values": [{"smiles": "COc1ccc(N(C(=O)/C=C/c2ccc(OC)c(OC)c2)C2=CC3CCC(C2)N3C)cc1", "note": "(configuration not stated)", "Potency": "inconclusive: 25.1 µM [falling, single point]"}, {"smiles": "Cc1ccc(-n2nc3c(c2NC(=O)c2c(-c4ccccc4Cl)noc2C)CSC3)cc1", "activity change, negative = inhibition": "inconclusive: 7.11%"}, {"smiles": "Nc1nonc1C(=O)NCCNCc1ccccc1OCc1ccccc1F", "activity change, negative = inhibition": "inconclusive: 0.368%"}, {"smiles": "Clc1ccccc1OCCCOc1cccc2cccnc12", "activity change, negative = inhibition": "inconclusive: -0.705%"}, {"smiles": "COC(=O)CSc1nc2c(c(C3CC=CCC3)c1C#N)CCC2", "note": "(configuration not stated)", "activity change, negative = inhibition": "inconclusive: 23.6%"}, {"smiles": "COc1ccc(-c2nc(CN(C)C(C)c3ccon3)c(C)o2)c(C)c1C", "note": "(configuration not stated)", "activity change, negative = inhibition": "inconclusive: 18.8%"}, {"smiles": "COc1ccc(C(=O)N/C(=C\\c2ccc3c(c2)OCO3)C(=O)NCCc2nc3ccccc3[nH]2)cc1", "activity change, negative = inhibition": "inconclusive: -12.1%"}, {"smiles": "COC(=O)c1ccccc1NC(=S)NC(NC(=O)COc1ccccc1)C(Cl)(Cl)Cl", "note": "(configuration not stated)", "activity change, negative = inhibition": "inconclusive: 1.97%"}, {"smiles": "NC(=O)C1CCCN(CC(=O)Nc2cc(S(=O)(=O)N3CCOCC3)ccc2N2CCCC2)C1", "note": "(configuration not stated)", "activity change, negative = inhibition": "inactive: 5.03%"}, {"smiles": "CN(C)CCCNC(CC(=O)Nc1cccc([N+](=O)[O-])c1)C(=O)O", "note": "(configuration not stated)", "activity change, negative = inhibition": "inconclusive: -7.94%"}, {"smiles": "O=C(O)/C=C/C(=O)NCc1csc2ccccc12", "activity change, negative = inhibition": "inactive: 2.63%"}, {"smiles": "CC(OC(=O)/C=C/c1ccccc1)C(=O)Nc1cccc(C#N)c1", "note": "(configuration not stated)", "Potency": "inconclusive: 29.1 µM [falling, single point]"}, {"smiles": "COc1cccc(NC(=O)CSc2nnc3c(n2)[nH]c2ccc(C)cc23)c1", "activity change, negative = inhibition": "inactive: -1.5%"}, {"smiles": "Cc1[nH]c2ccc(-c3nnc(SCC(=O)c4ccc(F)cc4)o3)cc2c1C", "activity change, negative = inhibition": "inconclusive: 6.95%"}, {"smiles": "CCCc1c(C(=O)Nc2ccc(F)cc2F)cnn1-c1ccccc1", "activity change, negative = inhibition": "inconclusive: -13.8%"}, {"smiles": "Cc1ccc(Sc2nc3ccc(C)cn3c(=O)c2/C=N/O)cc1", "activity change, negative = inhibition": "inconclusive: -22.2%"}, {"smiles": "Cc1ccc(C)c(OCCC(=O)OCC(=O)N2CCN(S(=O)(=O)c3ccc(Cl)cc3)CC2)c1", "activity change, negative = inhibition": "inconclusive: 9.71%"}, {"smiles": "CCOC(=O)c1cc(-c2ccccc2)n(CCC(=O)Nc2cc(OCC)ccc2OCC)c1C", "Potency": "inconclusive: 6.31 µM [falling, single point]"}, {"smiles": "COc1cccc(OCc2cc(C(=O)NCc3ccccn3)no2)c1", "activity change, negative = inhibition": "inactive: 0.332%"}, {"smiles": "CCCOc1cccc(C(=O)Nc2ccc(CN3CCOCC3)cc2)c1", "Potency": "inconclusive: 35.5 µM [falling, single point]"}, {"smiles": "CC(C)(C)c1ccc(C(=O)Cn2cnnc2C#N)cc1", "activity change, negative = inhibition": "inconclusive: -8.65%"}, {"smiles": "COc1ccc(-c2noc(N3CCC(C(=O)NCc4ccc(F)cc4)CC3)n2)cc1", "Potency": "inconclusive: 14.1 µM [falling, single point]"}]}]}
